Test results reported in patent US20230257703A1, “NANOSCALE POLYMERIC MICELLAR SCAFFOLDS FOR RAPID AND EFFICIENT ANTIBODY PRODUCTION” (Iowa State University Research Foundation, Inc., priority 2020, published 2023).

B1: ovalbumin (protein, UniProt P01012 2-386, looked up)
Ovalbumin: GSIGAASMEFCFDVFKELKVHHANENIFYCPIAIMSALAMVYLGAKDSTRTQINKVVRFDKLPGFGDSIEAQCGTSVNVHSSLRDILNQITKPNDVYSFSLASRLYAEERYPILPEYLQCVKELYRGGLEPINFQTAADQARELINSWVESQTNGIIRNVLQPSSVDSQTAMVLVNAIVFKGLWEKAFKDEDTQAMPFRVTEQESKPVQMMYQIGLFRVASMASEKMKILELPFASGTMSMLVLLPDEVSGLEQLESIINFEKLTEWTSSNVMEERKIKVYLPRMKMEEKYNLTSVLMAMGITDVFSSSANLSGISSAESLKISQAVHAAHAEINEAGREVVGSAEAGVDAASVSEEFRADHPFLFCIKHIATNAVLFFGRCVSP
notes: model antigen

Test system: B cells from splenic cells of wild-type (WT) mice
Experiment: CFSE B cell proliferation and viability, splenic cells of WT mice
Format: cell-based
Details: groups alone

Row | Molecule | statistical significance from medium only control, FIG. 4
1 | hen egg white lysozyme [HEL] | not significant from the medium only control
2 | B1 | not significant from the medium only control
